Data taken from patent publication US11278543B2, “Inhibitors of the PP1/GADD34 complex for the treatment of a condition requiring an immunosuppressive activity” (INSERM, priority 2009, dated 2022).
At least one structure is not confirmed: it was looked up by name or label, or the drawing left a doubt.

How the values were obtained:
P-eIF2-α = test: eIF2-α phosphorylation (P-eIF2-α) immunoblot in DCs; assay type: cell-based, mouse; conditions: 50 μM LY294002 added 1 h before harvesting
Description: Bone marrow-derived DCs were obtained and cultured as described previously^50. NIH3T3 cells were cultured in RPMI 1640 (GIBCO) supplemented with 10% FCS (HyClone, PERBIO), 100 units/ml penicillin and 100 μg/ml streptomycin (GIBCO). Wild-type and PKR^−/− MEFs (from Caetano Reis e Sousa) were cultured in DMEM, 10% FCS, pen/strep. Wild-type and GCN2^−/− MEFs (from David Ron) were cultured in RPMI, 10% FCS, pen/strep, MEM non-essential amino acids (GIBCO), 55 μM beta-mercaptoethanol. For the tryptophan starvation experiments, MEFs and DCs were cultured for the indicated time in RPMI 1640 Tryptophan—medium (21875, GIBCO). All cells were cultured at 37° C. and 5% CO2.
MEFs, NIH3T3 and immature DCs were treated for the indicated time with 10 μg/ml poly I:C (InvivoGen), alone or in combination with lipofectamine 2000 (Invitrogen). […]
Cells were lysed in 1% Triton X-100, 50 mM Hepes, 10 mM NaCl, 2.5 mM MgCl2, 2 mM EDTA, 10% glycerol, 1 mM PMSF, supplemented with Complete Mini Protease Inhibitor Cocktail Tablets (Roche). Protein quantification was performed using the BCA Protein Assay (Pierce). […] Quantification of eIF2α phosphorylation was performed using the Multi Gauge software (Fujifilm).

PI3K = conditions: cited from earlier work

Structure (SMILES): O=c1cc(N2CCOCC2)oc2c(-c3ccccc3)cccc12 [LY294002]
- eIF2-α dephosphorylation in poly I:C stimulated DCs (P-eIF2-α): efficiently prevented eIF2-α dephosphorylation
- eIF2-α dephosphorylation in poly I:C stimulated DCs (P-eIF2-α; listed as Ly294002): efficiently prevents eIF2-α. dephosphorylation
- Effect on protein synthesis (PI3K): strong inhibitory effect on protein synthesis
